Results are given in words; binding and its absence hold for the method and conditions named. Binding seen in cells or lysates may run through a third protein. Some binding calls cover weakened binding; strength is not graded here.
Molecular target: PARP1 (human (endogenous in HUVECs)) (UniProt P09874)
Assay: co-IP; whole-cell extract incubated with PARP1 antibody (1:50) or POLG antibody (1:50) at 4 °C overnight, Protein A/G magnetic beads 3 h, PBS washes, eluted by boiling, western blot

Amino acid sequences for entries named in this document (tags omitted).
UniProt P09874: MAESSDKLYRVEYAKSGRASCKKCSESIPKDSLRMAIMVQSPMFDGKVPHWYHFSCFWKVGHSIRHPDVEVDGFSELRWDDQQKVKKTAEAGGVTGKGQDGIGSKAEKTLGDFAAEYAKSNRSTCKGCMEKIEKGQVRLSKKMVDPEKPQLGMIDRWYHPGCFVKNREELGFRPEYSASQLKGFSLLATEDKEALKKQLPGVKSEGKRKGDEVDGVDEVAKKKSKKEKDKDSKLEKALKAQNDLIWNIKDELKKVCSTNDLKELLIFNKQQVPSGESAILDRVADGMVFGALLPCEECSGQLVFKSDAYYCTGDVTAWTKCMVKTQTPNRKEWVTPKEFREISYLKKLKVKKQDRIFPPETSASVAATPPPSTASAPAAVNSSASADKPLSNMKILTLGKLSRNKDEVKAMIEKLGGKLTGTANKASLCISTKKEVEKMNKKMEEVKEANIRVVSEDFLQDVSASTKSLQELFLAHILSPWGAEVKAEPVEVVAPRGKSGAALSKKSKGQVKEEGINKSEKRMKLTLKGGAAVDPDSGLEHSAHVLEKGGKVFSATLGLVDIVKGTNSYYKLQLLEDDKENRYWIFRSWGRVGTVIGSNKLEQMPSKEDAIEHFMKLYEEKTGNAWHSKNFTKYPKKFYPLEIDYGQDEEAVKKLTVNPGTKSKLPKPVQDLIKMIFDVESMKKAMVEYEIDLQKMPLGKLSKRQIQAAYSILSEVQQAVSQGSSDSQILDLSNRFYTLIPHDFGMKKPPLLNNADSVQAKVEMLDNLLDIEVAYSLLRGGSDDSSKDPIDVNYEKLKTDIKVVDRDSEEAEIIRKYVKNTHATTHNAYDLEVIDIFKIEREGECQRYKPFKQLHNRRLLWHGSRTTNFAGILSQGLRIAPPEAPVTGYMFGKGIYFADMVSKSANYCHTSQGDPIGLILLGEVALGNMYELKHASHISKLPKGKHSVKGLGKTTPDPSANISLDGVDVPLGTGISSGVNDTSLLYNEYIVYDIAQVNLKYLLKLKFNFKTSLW
UniProt P54098: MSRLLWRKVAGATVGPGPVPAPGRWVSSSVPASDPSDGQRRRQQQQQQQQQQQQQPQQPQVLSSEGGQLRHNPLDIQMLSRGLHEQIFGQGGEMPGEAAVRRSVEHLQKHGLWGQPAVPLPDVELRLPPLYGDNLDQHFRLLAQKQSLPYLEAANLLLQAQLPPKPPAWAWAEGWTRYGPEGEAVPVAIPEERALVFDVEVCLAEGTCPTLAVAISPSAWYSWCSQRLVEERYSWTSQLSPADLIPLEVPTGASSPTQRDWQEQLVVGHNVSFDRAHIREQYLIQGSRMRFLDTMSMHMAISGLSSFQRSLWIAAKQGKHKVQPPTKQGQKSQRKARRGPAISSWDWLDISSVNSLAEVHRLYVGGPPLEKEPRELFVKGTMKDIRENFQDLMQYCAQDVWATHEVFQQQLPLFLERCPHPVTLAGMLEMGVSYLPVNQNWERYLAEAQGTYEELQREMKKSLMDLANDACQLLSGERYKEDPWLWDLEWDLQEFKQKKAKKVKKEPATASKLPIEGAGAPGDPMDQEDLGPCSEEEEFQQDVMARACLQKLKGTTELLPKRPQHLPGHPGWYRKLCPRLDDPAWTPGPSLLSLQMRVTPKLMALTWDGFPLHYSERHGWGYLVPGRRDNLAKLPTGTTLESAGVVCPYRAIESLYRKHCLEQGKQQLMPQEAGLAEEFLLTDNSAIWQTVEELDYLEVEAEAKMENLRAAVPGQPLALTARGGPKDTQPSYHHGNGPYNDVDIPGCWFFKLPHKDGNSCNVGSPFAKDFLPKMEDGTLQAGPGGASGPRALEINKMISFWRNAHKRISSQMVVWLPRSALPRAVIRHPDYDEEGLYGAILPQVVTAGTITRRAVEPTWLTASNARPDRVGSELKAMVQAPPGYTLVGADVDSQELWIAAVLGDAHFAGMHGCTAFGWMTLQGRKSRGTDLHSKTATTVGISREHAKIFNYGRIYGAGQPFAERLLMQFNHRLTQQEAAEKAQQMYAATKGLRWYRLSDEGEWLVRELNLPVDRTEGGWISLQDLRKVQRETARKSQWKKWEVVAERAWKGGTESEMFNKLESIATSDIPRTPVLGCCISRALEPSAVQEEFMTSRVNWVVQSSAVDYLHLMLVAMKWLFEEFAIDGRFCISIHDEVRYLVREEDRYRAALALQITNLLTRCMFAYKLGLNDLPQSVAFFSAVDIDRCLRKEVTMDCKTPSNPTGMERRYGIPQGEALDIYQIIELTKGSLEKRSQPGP

- binding: binds
Substance: POLG (from UniProt P54098 1-1239)

— publication PMC10484939
